Experimental data taken from patent publication US20250027072A1, “METHODS AND COMPOSITIONS RELATED TO ENGINEERED CANNABINOID RECEPTORS” (priority 2021, published 2025).

Amino acid sequences for entries named in this document (tags omitted). Residues count along the entry.
UniProt P21554, whole entry: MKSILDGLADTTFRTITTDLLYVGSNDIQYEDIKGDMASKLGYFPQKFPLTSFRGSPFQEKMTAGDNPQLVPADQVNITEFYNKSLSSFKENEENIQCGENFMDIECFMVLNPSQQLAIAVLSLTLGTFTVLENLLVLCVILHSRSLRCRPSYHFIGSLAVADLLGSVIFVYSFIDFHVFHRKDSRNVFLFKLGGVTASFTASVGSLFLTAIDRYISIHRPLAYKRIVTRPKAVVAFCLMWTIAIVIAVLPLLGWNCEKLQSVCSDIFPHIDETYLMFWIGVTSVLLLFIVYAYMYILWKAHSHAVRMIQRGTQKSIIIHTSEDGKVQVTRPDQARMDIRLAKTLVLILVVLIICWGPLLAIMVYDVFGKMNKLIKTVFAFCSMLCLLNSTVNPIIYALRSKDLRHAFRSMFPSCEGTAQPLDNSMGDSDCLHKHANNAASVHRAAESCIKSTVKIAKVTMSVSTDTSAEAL
UniProt P21554, 90-472 limits assumed: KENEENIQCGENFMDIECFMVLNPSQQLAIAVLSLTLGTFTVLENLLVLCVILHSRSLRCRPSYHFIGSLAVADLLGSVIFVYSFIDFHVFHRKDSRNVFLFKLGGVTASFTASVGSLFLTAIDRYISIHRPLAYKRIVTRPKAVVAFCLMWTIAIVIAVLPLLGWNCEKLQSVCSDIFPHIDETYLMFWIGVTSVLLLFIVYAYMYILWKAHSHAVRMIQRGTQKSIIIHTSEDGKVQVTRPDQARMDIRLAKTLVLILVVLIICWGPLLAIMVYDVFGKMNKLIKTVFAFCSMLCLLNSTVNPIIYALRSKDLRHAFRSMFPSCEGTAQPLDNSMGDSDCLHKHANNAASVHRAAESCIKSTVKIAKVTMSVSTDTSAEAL

Target: human Cannabinoid Receptor 1 (CB1R) (Homo sapiens, UniProt P21554)
Assay: CB1R yeast biosensor signaling assay (ZsGreen reporter, flow cytometry)
Format: cell-based

Compound: CCCCC/C=C\C/C=C\C/C=C\C/C=C\CCCC(=O)NCCCl [ACEA]
- EC50: 145 nM and 36.6 nM
- on/off ratio (fold activation): < 4 fold and approximately 7 fold and 15 fold and 28 fold

For part of its entries the source gives two or more results. This is not the full list of results. There may be further records. The values listed for one entry differ for a reason that is not stated; some may be repeats, others may stem from another dose, organism or construct than stated.
